PubChem BioAssay AID504764, Drosophila RNAi Screening Center – 2011
The screen tested about 22,000 reagents; below is an unselected part of those with a known target gene and a result. Over the whole deposit, 403 (1.9%) got an active call. 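Unnormalised raw counts per well; ratio z-scores behind the hit calls and whether each hit raises or lowers signal are not deposited.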 Names joined by + are all predicted targets of the reagent. Not given: the amount of reagent.

- Screen: 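Genes whose knock-down alters Notch-dependent transcription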 (primary screen)
- Cells: Drosophila Kc167 cells
- Reagents: long dsRNA against Drosophila genes
- Time to read-out: about 5 days (4 days dsRNA, then 24 h after transfection)
- Conditions: transfection of constitutively active membrane-tethered Notch lacking the extracellular domain, read 24 h later
- Detection: 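Light from a Notch-responsive E(spl)m3 luciferase reporter under active Notch, with control-promoter and no-Notch reporter wells to normalise; raw counts from paired wells a and b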
- Scale: induced reporter light, run 1, well a and induced reporter light, run 1, well b: higher = more light from the Notch target reporter with active Notch; control promoter light, run 1, well a and control promoter light, run 1, well b: higher = more light from the viral control promoter (cell number, transfection, viability); uninduced reporter light, run 1, well a: higher = more light from the Notch target reporter without active Notch
- Active means: 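Wells with low control signal or poorly matching duplicates excluded; duplicates averaged; per source plate, z beyond ±2 for induced/control log2 ratio or beyond ±1.8 for induced/uninduced marks a hit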
- Calls: active = modifier hit (raised or lowered Notch signal); inactive = not a hit

Gene	dsRNA	induced reporter light, run 1, well a	induced reporter light, run 1, well b	control promoter light, run 1, well a	control promoter light, run 1, well b	uninduced reporter light, run 1, well a	Outcome
CG31862	DRSC01245	1.15e5	1.02e5	1.56e5	1.67e5	7645	inactive
Rbm13	DRSC17749	1.49e5	1.61e5	2.68e5	3.21e5	10940	inactive
CheA87a	DRSC14839	2.31e5	2.35e5	2.17e5	1.80e5	18655	inactive
CG31676	DRSC02387	63125	51180	64225	46400	2865	inactive
ox	DRSC07520	76100	81185	1.27e5	1.09e5	7678	inactive
Ns2	DRSC06993	1.06e5	1.10e5	1.82e5	2.00e5	9550	inactive
CG14736	DRSC14956	88600	1.08e5	1.00e5	76005	14762	inactive
brv1	DRSC11076	1.38e5	1.14e5	1.12e5	1.21e5	10225	inactive
CG14929 + CG4970 + CG14930	DRSC02412	1.16e5	1.51e5	67990	96555	17838	inactive
OtopLa	DRSC17787	2.20e5	1.27e5	2.50e5	2.74e5	12410	inactive
OtopLa	DRSC18133	1.76e5	1.96e5	4.20e5	3.71e5	12070	inactive
Mybbp1A	DRSC18788	1.29e5	1.53e5	1.64e5	2.07e5	10225	inactive
Mtr3	DRSC10953	43535	30925	28615	24685	4428	inactive
CG32651	DRSC18941	88720	91580	93685	66980	5570	inactive
ash1	DRSC11325	63795	74530	43495	49125	6955	inactive
eIF3f1	DRSC12328	23285	17095	21115	22115	2028	inactive
CG33337	DRSC13632	2.05e5	2.15e5	2.15e5	2.17e5	17060	inactive
ms(3)76Ba	DRSC10091	1.01e5	96590	1.21e5	96355	8910	inactive
qkr58E-1	DRSC04709	1.59e5	2.19e5	1.51e5	1.48e5	15205	inactive
kat-60L1	DRSC12184	1.38e5	1.29e5	92470	78525	11575	inactive
CG4960	DRSC15684	1.77e5	1.90e5	2.29e5	2.21e5	12540	inactive
CG7379	DRSC16237	2.10e5	2.04e5	2.97e5	2.87e5	17940	inactive
cry	DRSC16928	1.49e5	1.52e5	1.78e5	1.79e5	10685	inactive
CG32040	DRSC08981	1.60e5	1.41e5	1.32e5	1.41e5	11645	inactive
CG32809	DRSC18507	2.16e5	1.90e5	2.94e5	2.67e5	13840	inactive
CG32809	DRSC18562	94920	92955	1.69e5	1.71e5	8850	inactive
CG32809	DRSC18592	1.60e5	2.03e5	2.57e5	2.49e5	12260	inactive
CG5282	DRSC11775	94980	1.05e5	73350	90890	8350	inactive
Ktch	DRSC15094	1.08e5	1.21e5	1.79e5	1.79e5	9700	inactive
Vps33B	DRSC15722	1.90e5	2.24e5	2.86e5	2.81e5	17225	inactive
rux	DRSC18829	2.26e5	2.03e5	2.65e5	2.53e5	13900	inactive
CNT1	DRSC06082	2.13e5	1.83e5	1.94e5	2.09e5	17325	inactive
CG11905	DRSC09863	1.10e5	1.13e5	79900	87940	9525	inactive
CG5056	DRSC02808	96355	1.39e5	63900	76360	16465	inactive
